Assay results: the supplement of paper PMC12819154, “High-throughput peptide-centric local stability assay extends protein–ligand identification to membrane proteins, tissues and bacteria” (Nature Structural & Molecular Biology, 2025)
The other results are listed elsewhere or left out. Most values lie at the level of the controls, where differences are scatter.

Protein sequences, listed by entry. Tags and fused reporters are not part of them. Lines headed by an entry give the natural chain unless they say otherwise; changes in a name come on top.
UniProt Q8K0S9: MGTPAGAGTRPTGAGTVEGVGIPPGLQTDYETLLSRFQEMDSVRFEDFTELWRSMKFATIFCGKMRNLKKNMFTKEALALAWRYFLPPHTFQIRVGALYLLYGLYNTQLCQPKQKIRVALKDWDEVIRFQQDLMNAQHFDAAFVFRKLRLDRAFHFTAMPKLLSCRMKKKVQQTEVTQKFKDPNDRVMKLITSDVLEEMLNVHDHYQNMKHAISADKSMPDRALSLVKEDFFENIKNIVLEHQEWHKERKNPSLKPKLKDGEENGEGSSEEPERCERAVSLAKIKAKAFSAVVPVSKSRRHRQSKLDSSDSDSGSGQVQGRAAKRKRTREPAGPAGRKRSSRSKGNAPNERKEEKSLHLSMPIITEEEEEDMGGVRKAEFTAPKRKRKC
UniProt Q8CGR7: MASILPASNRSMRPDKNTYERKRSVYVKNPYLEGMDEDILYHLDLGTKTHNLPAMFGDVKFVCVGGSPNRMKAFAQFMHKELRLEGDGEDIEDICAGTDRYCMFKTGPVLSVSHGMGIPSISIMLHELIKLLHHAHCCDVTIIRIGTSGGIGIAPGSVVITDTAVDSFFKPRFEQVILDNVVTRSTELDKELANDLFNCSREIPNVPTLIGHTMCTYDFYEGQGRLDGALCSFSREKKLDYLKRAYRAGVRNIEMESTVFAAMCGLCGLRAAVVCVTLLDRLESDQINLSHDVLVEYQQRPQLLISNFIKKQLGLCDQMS
UniProt Q8K0D2: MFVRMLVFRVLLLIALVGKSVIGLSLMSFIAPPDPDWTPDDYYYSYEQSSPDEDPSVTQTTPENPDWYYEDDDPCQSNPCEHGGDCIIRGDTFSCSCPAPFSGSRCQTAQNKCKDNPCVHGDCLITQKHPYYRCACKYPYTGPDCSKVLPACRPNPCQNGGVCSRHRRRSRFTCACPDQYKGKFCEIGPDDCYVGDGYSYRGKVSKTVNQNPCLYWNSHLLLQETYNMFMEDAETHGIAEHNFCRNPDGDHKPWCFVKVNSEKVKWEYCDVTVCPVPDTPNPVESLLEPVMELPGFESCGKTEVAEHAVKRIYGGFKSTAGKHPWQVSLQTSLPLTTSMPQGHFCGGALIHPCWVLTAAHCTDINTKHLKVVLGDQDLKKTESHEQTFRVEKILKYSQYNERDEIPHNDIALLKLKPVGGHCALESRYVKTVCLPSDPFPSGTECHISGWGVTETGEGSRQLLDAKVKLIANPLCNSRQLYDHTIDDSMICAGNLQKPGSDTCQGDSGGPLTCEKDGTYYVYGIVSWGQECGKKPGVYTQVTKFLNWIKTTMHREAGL
UniProt Q8CD10: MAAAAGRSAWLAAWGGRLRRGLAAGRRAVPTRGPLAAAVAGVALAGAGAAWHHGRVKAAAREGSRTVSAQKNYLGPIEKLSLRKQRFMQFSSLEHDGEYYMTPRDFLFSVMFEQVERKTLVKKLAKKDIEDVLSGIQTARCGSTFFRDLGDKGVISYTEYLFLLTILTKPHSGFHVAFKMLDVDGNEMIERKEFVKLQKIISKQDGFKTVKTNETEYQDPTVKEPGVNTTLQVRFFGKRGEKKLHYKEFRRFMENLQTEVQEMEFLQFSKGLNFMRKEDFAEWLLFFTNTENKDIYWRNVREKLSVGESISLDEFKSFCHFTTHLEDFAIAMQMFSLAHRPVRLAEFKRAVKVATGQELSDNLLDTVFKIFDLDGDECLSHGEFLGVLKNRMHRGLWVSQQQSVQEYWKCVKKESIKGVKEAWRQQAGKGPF
UniProt Q8K0L3: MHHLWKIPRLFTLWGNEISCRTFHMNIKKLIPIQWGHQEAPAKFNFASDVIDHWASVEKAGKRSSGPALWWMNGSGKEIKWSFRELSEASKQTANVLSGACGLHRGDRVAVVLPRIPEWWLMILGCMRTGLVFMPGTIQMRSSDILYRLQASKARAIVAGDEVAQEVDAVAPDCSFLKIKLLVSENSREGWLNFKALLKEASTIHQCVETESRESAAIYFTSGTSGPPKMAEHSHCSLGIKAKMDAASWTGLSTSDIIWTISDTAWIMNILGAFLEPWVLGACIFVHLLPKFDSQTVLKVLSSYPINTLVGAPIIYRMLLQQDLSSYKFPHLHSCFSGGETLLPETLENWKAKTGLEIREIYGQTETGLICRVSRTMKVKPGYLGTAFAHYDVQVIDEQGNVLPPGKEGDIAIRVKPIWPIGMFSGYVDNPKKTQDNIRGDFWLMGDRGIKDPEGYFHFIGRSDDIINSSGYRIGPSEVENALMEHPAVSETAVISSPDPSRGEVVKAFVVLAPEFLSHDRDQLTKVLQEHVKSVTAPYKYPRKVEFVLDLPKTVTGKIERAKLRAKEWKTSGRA
UniProt Q8CCI5: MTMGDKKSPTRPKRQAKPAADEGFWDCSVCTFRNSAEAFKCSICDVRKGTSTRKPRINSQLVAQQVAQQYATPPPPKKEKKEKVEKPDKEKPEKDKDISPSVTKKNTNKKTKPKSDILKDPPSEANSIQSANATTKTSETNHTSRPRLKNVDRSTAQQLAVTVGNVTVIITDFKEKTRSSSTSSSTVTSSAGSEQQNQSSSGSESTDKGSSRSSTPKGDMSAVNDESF
UniProt Q8K0V4, whole entry: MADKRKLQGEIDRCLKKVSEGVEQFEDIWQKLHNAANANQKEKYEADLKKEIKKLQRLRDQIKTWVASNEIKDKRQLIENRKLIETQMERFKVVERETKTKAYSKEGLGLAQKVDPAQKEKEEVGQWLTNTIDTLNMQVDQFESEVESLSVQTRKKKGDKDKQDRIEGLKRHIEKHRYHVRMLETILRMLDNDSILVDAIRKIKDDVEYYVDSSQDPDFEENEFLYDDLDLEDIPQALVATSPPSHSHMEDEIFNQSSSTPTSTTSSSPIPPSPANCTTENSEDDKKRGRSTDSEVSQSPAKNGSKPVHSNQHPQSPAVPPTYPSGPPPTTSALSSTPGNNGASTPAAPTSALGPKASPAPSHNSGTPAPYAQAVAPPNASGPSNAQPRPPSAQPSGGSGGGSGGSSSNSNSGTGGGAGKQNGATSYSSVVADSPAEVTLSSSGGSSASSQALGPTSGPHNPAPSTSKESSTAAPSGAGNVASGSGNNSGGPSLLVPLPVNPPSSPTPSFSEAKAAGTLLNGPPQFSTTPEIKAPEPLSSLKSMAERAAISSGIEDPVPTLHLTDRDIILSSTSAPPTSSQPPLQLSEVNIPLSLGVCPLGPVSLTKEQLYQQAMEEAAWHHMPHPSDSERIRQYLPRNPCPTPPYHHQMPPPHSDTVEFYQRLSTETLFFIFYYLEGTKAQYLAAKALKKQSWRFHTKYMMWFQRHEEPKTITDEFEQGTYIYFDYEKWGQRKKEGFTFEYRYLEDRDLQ
UniProt Q8CCC3: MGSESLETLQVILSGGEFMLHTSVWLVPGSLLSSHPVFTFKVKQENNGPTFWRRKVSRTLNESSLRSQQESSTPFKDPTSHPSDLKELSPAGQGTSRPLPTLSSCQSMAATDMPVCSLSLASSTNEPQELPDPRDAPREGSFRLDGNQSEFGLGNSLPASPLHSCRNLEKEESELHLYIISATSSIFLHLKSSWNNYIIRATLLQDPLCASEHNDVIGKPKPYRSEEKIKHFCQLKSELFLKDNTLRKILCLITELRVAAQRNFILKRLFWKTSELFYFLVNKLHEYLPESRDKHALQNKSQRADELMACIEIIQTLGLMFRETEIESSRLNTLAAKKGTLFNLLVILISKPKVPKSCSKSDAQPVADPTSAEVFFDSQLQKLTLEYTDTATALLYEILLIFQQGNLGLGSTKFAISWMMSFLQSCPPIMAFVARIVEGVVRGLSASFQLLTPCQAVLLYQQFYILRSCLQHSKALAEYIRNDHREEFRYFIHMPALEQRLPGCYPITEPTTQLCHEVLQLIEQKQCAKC
UniProt Q8CIZ8, whole entry: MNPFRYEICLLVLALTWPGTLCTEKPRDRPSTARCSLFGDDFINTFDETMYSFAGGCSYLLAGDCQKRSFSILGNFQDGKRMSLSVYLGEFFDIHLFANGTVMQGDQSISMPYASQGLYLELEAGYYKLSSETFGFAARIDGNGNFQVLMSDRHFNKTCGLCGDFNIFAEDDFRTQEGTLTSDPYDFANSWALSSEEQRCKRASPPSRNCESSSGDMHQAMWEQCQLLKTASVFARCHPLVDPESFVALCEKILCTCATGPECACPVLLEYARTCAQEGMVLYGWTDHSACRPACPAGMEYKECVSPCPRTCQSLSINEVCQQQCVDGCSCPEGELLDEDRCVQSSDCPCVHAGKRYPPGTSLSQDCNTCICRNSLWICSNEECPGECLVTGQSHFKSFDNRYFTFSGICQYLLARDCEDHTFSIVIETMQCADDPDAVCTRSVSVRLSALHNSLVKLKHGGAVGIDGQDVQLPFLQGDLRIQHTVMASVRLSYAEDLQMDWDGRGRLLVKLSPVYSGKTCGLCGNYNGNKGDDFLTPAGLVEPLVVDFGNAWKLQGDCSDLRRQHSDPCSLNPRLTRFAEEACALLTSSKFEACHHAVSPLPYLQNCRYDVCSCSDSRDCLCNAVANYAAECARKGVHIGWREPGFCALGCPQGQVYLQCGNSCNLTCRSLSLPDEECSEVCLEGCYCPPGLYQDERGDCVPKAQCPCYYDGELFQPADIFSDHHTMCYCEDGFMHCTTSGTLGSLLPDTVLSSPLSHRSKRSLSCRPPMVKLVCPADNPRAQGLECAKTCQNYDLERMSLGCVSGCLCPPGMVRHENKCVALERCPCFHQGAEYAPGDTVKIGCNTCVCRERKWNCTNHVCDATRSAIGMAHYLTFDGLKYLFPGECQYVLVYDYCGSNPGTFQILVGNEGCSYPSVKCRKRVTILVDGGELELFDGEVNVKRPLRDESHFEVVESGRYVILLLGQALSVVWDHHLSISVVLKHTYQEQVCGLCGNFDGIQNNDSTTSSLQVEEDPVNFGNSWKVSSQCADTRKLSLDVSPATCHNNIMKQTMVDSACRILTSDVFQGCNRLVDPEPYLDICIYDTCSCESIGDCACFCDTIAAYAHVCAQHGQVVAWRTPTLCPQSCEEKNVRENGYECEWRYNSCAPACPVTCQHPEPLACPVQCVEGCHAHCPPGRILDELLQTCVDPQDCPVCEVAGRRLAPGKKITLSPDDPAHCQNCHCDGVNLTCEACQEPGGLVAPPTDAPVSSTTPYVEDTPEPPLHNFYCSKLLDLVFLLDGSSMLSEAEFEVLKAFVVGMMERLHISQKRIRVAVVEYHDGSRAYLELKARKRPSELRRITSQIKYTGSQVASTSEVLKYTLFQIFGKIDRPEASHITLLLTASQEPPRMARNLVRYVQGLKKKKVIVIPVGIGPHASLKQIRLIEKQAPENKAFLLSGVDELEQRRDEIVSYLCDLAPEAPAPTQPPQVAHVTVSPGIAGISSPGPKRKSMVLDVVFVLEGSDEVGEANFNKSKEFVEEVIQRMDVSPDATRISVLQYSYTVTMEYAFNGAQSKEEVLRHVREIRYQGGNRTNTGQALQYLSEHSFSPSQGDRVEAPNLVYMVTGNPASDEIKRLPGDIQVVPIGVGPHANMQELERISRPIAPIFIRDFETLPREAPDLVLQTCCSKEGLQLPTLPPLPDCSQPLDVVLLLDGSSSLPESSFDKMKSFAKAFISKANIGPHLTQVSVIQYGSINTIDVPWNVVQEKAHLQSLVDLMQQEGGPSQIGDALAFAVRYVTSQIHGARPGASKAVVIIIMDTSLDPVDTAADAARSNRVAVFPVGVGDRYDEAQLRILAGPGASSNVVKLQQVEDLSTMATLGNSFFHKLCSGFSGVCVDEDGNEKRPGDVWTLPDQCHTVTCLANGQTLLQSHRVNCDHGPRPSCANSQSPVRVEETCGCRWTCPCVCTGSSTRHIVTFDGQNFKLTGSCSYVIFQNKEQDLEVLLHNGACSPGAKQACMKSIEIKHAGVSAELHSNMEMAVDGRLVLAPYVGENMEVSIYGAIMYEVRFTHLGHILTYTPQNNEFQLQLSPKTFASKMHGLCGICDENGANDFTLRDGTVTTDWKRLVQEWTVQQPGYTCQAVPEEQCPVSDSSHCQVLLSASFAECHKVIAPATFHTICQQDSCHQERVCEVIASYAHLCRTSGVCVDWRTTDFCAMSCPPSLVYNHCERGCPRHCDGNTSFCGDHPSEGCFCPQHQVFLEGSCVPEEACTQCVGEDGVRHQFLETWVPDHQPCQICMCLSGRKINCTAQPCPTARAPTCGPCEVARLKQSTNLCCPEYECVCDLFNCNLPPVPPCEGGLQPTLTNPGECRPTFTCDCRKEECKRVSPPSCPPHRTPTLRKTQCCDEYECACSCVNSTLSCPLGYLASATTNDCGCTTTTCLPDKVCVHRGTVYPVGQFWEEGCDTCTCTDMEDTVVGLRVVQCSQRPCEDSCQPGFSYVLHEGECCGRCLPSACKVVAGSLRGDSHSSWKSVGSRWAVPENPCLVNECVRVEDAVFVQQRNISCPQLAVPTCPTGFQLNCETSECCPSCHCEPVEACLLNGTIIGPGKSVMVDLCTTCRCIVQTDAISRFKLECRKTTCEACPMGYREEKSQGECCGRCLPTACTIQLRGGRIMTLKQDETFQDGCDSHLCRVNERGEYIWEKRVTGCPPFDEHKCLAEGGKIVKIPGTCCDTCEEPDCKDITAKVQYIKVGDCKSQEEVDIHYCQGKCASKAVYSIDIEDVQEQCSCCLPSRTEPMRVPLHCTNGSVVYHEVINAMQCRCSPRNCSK

Compound: CN[C@@H]1C[C@H]2O[C@@](C)([C@@H]1OC)n1c3ccccc3c3c4c(c5c6ccccc6n2c5c31)C(=O)NC4 [staurosporine]
Assay: log2 fold change of tryptic peptide abundance, ligand vs vehicle (limited proteolysis) (log2 ratio); higher = more trypsin-susceptible (destabilized)
Settings: ligand concentration: 20 uM; sample: mouse liver crude lysate; replicate design: treated separately

Target | log2 fold change
UniProt Q8CIF4 (peptide sequence: QEALELMK, peptide start residue: 57) | -0.293
UniProt Q8K0S9 (peptide sequence: AFSAVVPVSK, peptide start residue: 288) | 0.0489
UniProt Q8CC35 (peptide sequence: YTTNAPGGFR, peptide start residue: 751) | 0.375
UniProt Q8CIS0 (peptide sequence: IVEEQRK, peptide start residue: 224) | 0.139
UniProt Q8CBG9 (peptide sequence: VLREQFQTEQDVPAPAR, peptide start residue: 90) | -0.0906
UniProt Q8JZV9 (peptide sequence: DNPKEALK, peptide start residue: 193) | -0.218
UniProt Q8CGB3 (peptide sequence: EQREPHSFQDLEIENEDLREK, peptide start residue: 294) | -0.903
UniProt Q8CCF0 (peptide sequence: YFSSMAEFLK, peptide start residue: 479) | -0.0785
UniProt Q8CBY1 (peptide sequence: KTLLDISGYR, peptide start residue: 552) | -0.337
UniProt Q8CHT1 (peptide sequence: SQNLKECFRVHK, peptide start residue: 678) | -0.723
UniProt Q8CGR7 (peptide sequence: STELDKELANDLFNCSR, peptide start residue: 185) | -0.182
UniProt Q8CFD4 (peptide sequence: QMMSAAHGREPESVEQLESR, peptide start residue: 350) | -0.2
UniProt Q8CJ40 (peptide sequence: SLSEGAKER, peptide start residue: 1205) | 0.255
UniProt Q8CES0 (peptide sequence: VLSAAEAAAPDGASK, peptide start residue: 105) | 0.12
UniProt Q8K0D2 (peptide sequence: LKPVGGHCALESR, peptide start residue: 415) | -0.229
UniProt Q8CGN4 (peptide sequence: HLIPQESR, peptide start residue: 1370) | 0.237
UniProt Q8CD91 (peptide sequence: LLDKNSSGDIGKK, peptide start residue: 358) | 0.129
UniProt Q8JZS9 (peptide sequence: TMEVMRLPDQGNK, peptide start residue: 130) | 0.0873

Target | log2 fold change
UniProt Q8CD10 (peptide sequence: CGSTFFR, peptide start residue: 141) | 0.308
UniProt Q8CI94 (peptide sequence: GIAGLGDVAEVR, peptide start residue: 18) | -0.108
UniProt Q8CJH3 (peptide sequence: ENQDYVPGER, peptide start residue: 1844) | -0.262
UniProt Q8K0L3 (peptide sequence: SVTAPYKYPR, peptide start residue: 535) | 0.247
UniProt Q8CDD8 (peptide sequence: FGNSGLGFGGGAHSQAPEK, peptide start residue: 100) | 0.264
UniProt Q8CGU1 (peptide sequence: EKDSSLVQLSESKR, peptide start residue: 457) | 0.466
UniProt Q8CCI5 (peptide sequence: CSICDVR, peptide start residue: 41) | 0.275
UniProt Q8CGF6 (peptide sequence: LIHDTANIHTSTPR, peptide start residue: 532) | -0.256
UniProt Q8CF02 (peptide sequence: ATEGAVHAVEEVVSEVVGHAK, peptide start residue: 20) | -0.202
UniProt Q8CHG3 (peptide sequence: NSTCQYER, peptide start residue: 1048) | 0.68
UniProt Q8K0L9 (peptide sequence: DHHMEDPSWITR, peptide start residue: 279) | -0.0771
UniProt Q8CCE9 (peptide sequence: VTAAHTAEAR, peptide start residue: 9) | 0.194
UniProt Q8K0V4 (peptide sequence: TWVASNEIK, peptide start residue: 64) | -0.215
UniProt Q8CI15 (peptide sequence: FTVGTFFR, peptide start residue: 192) | 0.0788
UniProt Q8CI32 (peptide sequence: EAQALVKDK, peptide start residue: 100) | -0.501
UniProt Q8JZN5 (peptide sequence: TVETLLLR, peptide start residue: 515) | 0.174
UniProt Q8CCC3 (peptide sequence: DAPREGSFR, peptide start residue: 135) | 0.38
UniProt Q8CIZ8 (peptide sequence: QHSDPCSLNPR, peptide start residue: 565) | -0.2

An excerpt of these results, field by field:
UniProt Q8CGU1 (peptide sequence: EKDSSLVQLSESKR, peptide start residue: 457)
  log2 fold change: 0.466
UniProt Q8K0V4 (peptide sequence: TWVASNEIK, peptide start residue: 64)
  log2 fold change: -0.215
